Source: the supplement of paper PMC12819154, “High-throughput peptide-centric local stability assay extends protein–ligand identification to membrane proteins, tissues and bacteria” (Nature Structural & Molecular Biology, 2025)
Some of the results follow. Small differences around the control level are noise.

The chains behind the UniProt entries cited, without tags or fusion partners. Where a name states a change or a piece, a line headed by the entry shows the natural chain unless it says otherwise.
UniProt Q91VK1: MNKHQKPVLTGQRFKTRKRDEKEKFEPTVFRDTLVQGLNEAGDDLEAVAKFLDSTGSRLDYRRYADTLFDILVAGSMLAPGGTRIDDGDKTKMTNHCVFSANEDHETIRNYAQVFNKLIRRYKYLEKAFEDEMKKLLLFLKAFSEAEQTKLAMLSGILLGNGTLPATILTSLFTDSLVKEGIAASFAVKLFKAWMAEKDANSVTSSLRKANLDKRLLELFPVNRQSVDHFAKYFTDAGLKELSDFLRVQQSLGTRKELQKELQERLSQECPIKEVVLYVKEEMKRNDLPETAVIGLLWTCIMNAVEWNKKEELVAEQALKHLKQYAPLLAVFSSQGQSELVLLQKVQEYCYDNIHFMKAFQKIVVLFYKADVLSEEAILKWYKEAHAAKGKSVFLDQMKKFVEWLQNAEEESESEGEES
UniProt Q91VW3: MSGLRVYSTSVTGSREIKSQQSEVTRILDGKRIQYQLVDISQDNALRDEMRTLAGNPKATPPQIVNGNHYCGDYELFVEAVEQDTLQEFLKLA
UniProt Q91YN9: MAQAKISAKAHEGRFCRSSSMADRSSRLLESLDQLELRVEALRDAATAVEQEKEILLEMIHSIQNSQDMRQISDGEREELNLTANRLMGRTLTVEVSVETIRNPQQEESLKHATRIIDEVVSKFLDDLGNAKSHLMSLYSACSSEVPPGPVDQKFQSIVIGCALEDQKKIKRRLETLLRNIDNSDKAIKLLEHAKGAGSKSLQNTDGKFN
UniProt Q91W82: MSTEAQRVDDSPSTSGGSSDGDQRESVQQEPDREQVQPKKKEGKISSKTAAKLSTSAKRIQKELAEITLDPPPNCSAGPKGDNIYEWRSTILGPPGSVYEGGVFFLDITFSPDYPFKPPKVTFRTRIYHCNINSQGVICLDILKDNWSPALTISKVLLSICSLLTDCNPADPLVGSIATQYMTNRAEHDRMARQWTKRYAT
UniProt Q91VU8: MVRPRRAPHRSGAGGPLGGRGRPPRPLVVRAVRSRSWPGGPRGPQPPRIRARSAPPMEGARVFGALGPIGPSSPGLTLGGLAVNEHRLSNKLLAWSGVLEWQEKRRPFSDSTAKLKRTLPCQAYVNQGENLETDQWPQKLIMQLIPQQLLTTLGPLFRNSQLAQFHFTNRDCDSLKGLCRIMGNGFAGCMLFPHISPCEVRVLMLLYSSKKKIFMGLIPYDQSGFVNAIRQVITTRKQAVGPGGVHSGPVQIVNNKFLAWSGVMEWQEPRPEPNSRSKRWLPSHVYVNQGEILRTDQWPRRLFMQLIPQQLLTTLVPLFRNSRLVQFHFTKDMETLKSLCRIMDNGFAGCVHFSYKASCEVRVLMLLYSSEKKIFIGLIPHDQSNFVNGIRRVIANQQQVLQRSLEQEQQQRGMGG

Each target was assayed with CN[C@@H]1C[C@H]2O[C@@](C)([C@@H]1OC)n1c3ccccc3c3c4c(c5c6ccccc6n2c5c31)C(=O)NC4 [staurosporine] (assay: log2 fold change of tryptic peptide abundance, ligand vs vehicle (limited proteolysis) (log2 ratio); higher = more trypsin-susceptible (destabilized)). Conditions: ligand concentration: 20 uM; sample: mouse liver crude lysate; replicate design: treated separately.

With “UniProt Q91VK1 (peptide sequence: DEKEKFEPTVFR, peptide start residue: 20)” as the target, how does the log2 fold change read?
The log2 fold change was 0.518.

How did the log2 fold change turn out when “UniProt Q91VW3 (peptide sequence: VYSTSVTGSR, peptide start residue: 6)” was run?
The log2 fold change was 0.0654.

Which log2 fold change does the source give for “UniProt Q91YN9 (peptide sequence: SLQNTDGKFN, peptide start residue: 201)” here?
The log2 fold change was -0.209.

Which log2 fold change does the source give for “UniProt Q91W82 (peptide sequence: ESVQQEPDREQVQPK, peptide start residue: 25)” here?
Its log2 fold change is -0.0482.

With “UniProt Q91VU8 (peptide sequence: SLEQEQQQR, peptide start residue: 404)” as the target, how does the log2 fold change read?
The log2 fold change was -0.119.
